Patent publication US9598389B2, “Dihydrobenzofuran derivatives as insecticidal compounds” (SYNGENTA PARTICIPATIONS AG, priority 2013, dated 2017)
Some results were stated once for a whole list of compounds, not compound by compound. For at least one compound, name, drawing or mass did not settle the structure.

Assays:
Type in all cases: in vivo
[1] = tested on: Spodoptera Littoralis (Egyptian Cotton Leaf Worm); assay: Spodoptera littoralis cotton leaf disc spray test; settings: application rate of 200 ppm; L1 larvae; 3 days after infestation
Method: Spodoptera Littoralis (Egyptian Cotton Leaf Worm)
Cotton leaf discs were placed on agar in 24-well microtiter plates and sprayed with aqueous test solutions prepared from 10,000 ppm DMSO stock solutions. After drying the leaf discs were infested with five L1 larvae. The samples were assessed for mortality, anti-feedant effect, and growth inhibition in comparison to untreated samples 3 days after infestation. Control of Spodoptera littoralis by a test sample is when at least one of mortality, anti-feedant effect, and growth inhibition is higher than the untreated sample.

[2] = tested on: Heliothis virescens (Tobacco Budworm); assay: Heliothis virescens egg/larval test on artificial diet; settings: application rate of 200 ppm; eggs 0-24 h old; 5 days after infestation
Method: Heliothis virescens (Tobacco Budworm):
Eggs (0-24 h old) were placed in 24-well microtiter plates on artificial diet and treated with aqueous test solutions prepared from 10,000 ppm DMSO stock solutions by pipetting. The samples were assessed for egg and larval mortality 5 days after infestation.

[3] = tested on: Diabrotica balteata (Corn Root Worm); assay: Diabrotica balteata L2 larvae test on artificial diet; settings: application rate of 200 ppm, 5 days after infestation
Method: Diabrotica balteata (Corn Root Worm):
(§1) 24-well microtiter plates with artificial diet were treated with aqueous test solutions prepared from 10,000 ppm DMSO stock solutions by pipetting. After drying, the plates were infested with L2 larvae (6 to 10 per well). The samples were assessed for mortality and growth inhibition in comparison to untreated samples 5 days after infestation.

[4] = tested on: Plutella xylostella (Diamond Back Moth); assay: Plutella xylostella L2 larvae test on artificial diet; settings: application rate of 200 ppm, 5 days after infestation
Method: Plutella xylostella (Diamond Back Moth):
as §1, with “larvae (10” for “larvae (6”, “to 15” for “to 10”

In the case of `O=C(Nc1cc(-c2ccc3c(c2)CC(c2cc(Cl)cc(Cl)c2)(C(F)(F)F)O3)ccc1[N+](=O)[O-])C1CC1` (stereo not shown) [Compound 239], the “control (at least one of mortality, anti-feedant effect, growth inhibition)” value [1] is reported as “at least 80%”, the “egg or larval mortality” value [2] is reported as at least 80% and the “effect in at least one of the two categories (mortality or growth inhibition)” value (from here on “effect … (mortality or growth inhibition)”) [3] is reported as at least 80%.

For `CCN(C(=O)C1CC1)c1ccc(F)c(-c2ccc3c(c2)CC(c2cc(Cl)cc(Cl)c2)(C(F)(F)F)O3)c1` (racemic) [Compound 15], the “egg or larval mortality” value [2] was at least 80%, the “effect … (mortality or growth inhibition)” value [4] was at least 80% and the “effect … (mortality or growth inhibition)” value [3] was at least 80%.

For `CCC(=O)Nc1cncc(-c2ccc3c(c2)CC(c2cc(Cl)cc(Cl)c2)(C(F)(F)F)O3)c1` (racemic) [Compound 89], the “control (at least one of mortality, anti-feedant effect, growth inhibition)” value [1] was “at least 80%”, the “egg or larval mortality” value [2] was at least 80% and the “effect … (mortality or growth inhibition)” value [4] was at least 80%. For the same compound, the “effect … (mortality or growth inhibition)” value [3] was at least 80%.

With `CCC(=O)Nc1ccnc(-c2cc3c(cc2C)OC(c2cc(Cl)cc(Cl)c2)(C(F)(F)F)C3)n1` (stereo not shown) [Compound 130] the “control (at least one of mortality, anti-feedant effect, growth inhibition)” value [1] was “at least 80%”, the “effect … (mortality or growth inhibition)” value [4] was at least 80% and the “effect … (mortality or growth inhibition)” value [3] was at least 80%.

`Cc1cc2c(cc1-c1cc(NC(=O)C3CC3)ccn1)CC(c1cc(Cl)cc(Cl)c1)(C(F)(F)F)O2` (racemic) [Compound 90] was tested, and the “control (at least one of mortality, anti-feedant effect, growth inhibition)” value [1] was “at least 80%”, the “egg or larval mortality” value [2] was at least 80% and the “effect … (mortality or growth inhibition)” value [4] was at least 80%. The “effect … (mortality or growth inhibition)” value [3] was at least 80%.

With `O=C(CC(F)(F)F)Nc1cc(-c2ccc3c(c2)CC(c2cc(C(F)(F)F)cc(C(F)(F)F)c2)(C(F)(F)F)O3)ccc1F` (stereo not shown) [Compound 216] the “control (at least one of mortality, anti-feedant effect, growth inhibition)” value [1] was “at least 80%”, the “egg or larval mortality” value [2] was at least 80% and the “effect … (mortality or growth inhibition)” value [4] was at least 80%. The “effect … (mortality or growth inhibition)” value [3] was at least 80%.

In the case of `CCC(=O)Nc1cc(-c2ccc3c(c2)CC(c2cc(Cl)cc(Cl)c2)(C(F)(F)F)O3)ccn1` (racemic) [Compound 87], the “control (at least one of mortality, anti-feedant effect, growth inhibition)” value [1] is reported as “at least 80%”, the “egg or larval mortality” value [2] is reported as at least 80% and the “effect … (mortality or growth inhibition)” value [4] is reported as at least 80%. For the same compound, the “effect … (mortality or growth inhibition)” value [3] was at least 80%.

For `N#Cc1ccc(-c2ccc3c(c2)CC(c2cc(Cl)cc(Cl)c2)(C(F)(F)F)O3)cc1NC(=O)C1CSC1` (stereo not shown) [Compound 207], the “effect … (mortality or growth inhibition)” value [3] was at least 80%.

`CSCC(=O)Nc1cc(-c2ccc3c(c2)CC(c2cccc(C(F)(F)F)c2)(C(F)(F)F)O3)ccc1C#N` (stereo not shown) [Compound 135] was tested, and the “control (at least one of mortality, anti-feedant effect, growth inhibition)” value [1] was “at least 80%”, the “egg or larval mortality” value [2] was at least 80% and the “effect … (mortality or growth inhibition)” value [4] was at least 80%. For the same compound, the “effect … (mortality or growth inhibition)” value [3] was at least 80%.

With `Cc1cc2c(cc1-c1ccnc(NC(=O)C3CC3)n1)CC(c1cc(Cl)cc(Cl)c1)(C(F)(F)F)O2` (stereo not shown) [Compound 173] the “control (at least one of mortality, anti-feedant effect, growth inhibition)” value [1] was “at least 80%”, the “effect … (mortality or growth inhibition)” value [4] was at least 80% and the “effect … (mortality or growth inhibition)” value [3] was at least 80%.

For `CC1(C(=O)Nc2cccc(-c3ccc4c(c3)CC(c3cccc(C(F)(F)F)c3)(C(F)(F)F)O4)c2)CCC1` (stereo not shown) [Compound 123], the “control (at least one of mortality, anti-feedant effect, growth inhibition)” value [1] was “at least 80%”, the “egg or larval mortality” value [2] was at least 80% and the “effect … (mortality or growth inhibition)” value [4] was at least 80%. For the same compound, the “effect … (mortality or growth inhibition)” value [3] was at least 80%.

In the case of `Cc1cc2c(cc1-c1ccnc(N(C(=O)C3CC3)C(=O)C3CC3)n1)CC(c1cc(Cl)cc(Cl)c1)(C(F)(F)F)O2` (stereo not shown) [Compound 139], the “control (at least one of mortality, anti-feedant effect, growth inhibition)” value [1] is reported as “at least 80%”, the “effect … (mortality or growth inhibition)” value [4] is reported as at least 80% and the “effect … (mortality or growth inhibition)” value [3] is reported as at least 80%.

`CCC(=O)Nc1cncc(-c2cc3c(cc2C)OC(c2cc(Cl)cc(Cl)c2)(C(F)(F)F)C3)c1` (racemic) [Compound 88] was tested, and the “control (at least one of mortality, anti-feedant effect, growth inhibition)” value [1] was “at least 80%”, the “egg or larval mortality” value [2] was at least 80% and the “effect … (mortality or growth inhibition)” value [4] was at least 80%. The “effect … (mortality or growth inhibition)” value [3] was at least 80%.

`O=C(Cn1cncn1)Nc1cccc(-c2ccc3c(c2)CC(c2cccc(C(F)(F)F)c2)(C(F)(F)F)O3)c1` (stereo not shown) [Compound 25] was tested, and the “egg or larval mortality” value [2] was at least 80%, the “effect … (mortality or growth inhibition)” value [4] was at least 80% and the “effect … (mortality or growth inhibition)” value [3] was at least 80%.

`COC(C)C(=O)Nc1cccc(-c2ccc3c(c2)CC(c2cccc(C(F)(F)F)c2)(C(F)(F)F)O3)c1` (stereo not shown) [Compound 117] was tested, and the “control (at least one of mortality, anti-feedant effect, growth inhibition)” value [1] was “at least 80%”, the “egg or larval mortality” value [2] was at least 80% and the “effect … (mortality or growth inhibition)” value [4] was at least 80%. For the same compound, the “effect … (mortality or growth inhibition)” value [3] was at least 80%.

For `CCC(=O)Nc1cccc(-c2cc3c(cc2C)OC(c2cc(Cl)cc(Cl)c2)(C(F)(F)F)C3)n1` (racemic) [Compound 86], the “control (at least one of mortality, anti-feedant effect, growth inhibition)” value [1] was “at least 80%”, the “egg or larval mortality” value [2] was at least 80% and the “effect … (mortality or growth inhibition)” value [4] was at least 80%. For the same compound, the “effect … (mortality or growth inhibition)” value [3] was at least 80%.

With `CC(C)=CC(=O)Nc1cccc(-c2ccc3c(c2)CC(c2cc(Cl)cc(Cl)c2)(C(F)(F)F)O3)c1` (stereo not shown) [Compound 172] the “control (at least one of mortality, anti-feedant effect, growth inhibition)” value [1] was “at least 80%”, the “effect … (mortality or growth inhibition)” value [4] was at least 80% and the “effect … (mortality or growth inhibition)” value [3] was at least 80%.

`COCCOCC(=O)Nc1cccc(-c2ccc3c(c2)CC(c2cccc(C(F)(F)F)c2)(C(F)(F)F)O3)c1` (stereo not shown) [Compound 66] was tested, and the “control (at least one of mortality, anti-feedant effect, growth inhibition)” value [1] was “at least 80%”, the “egg or larval mortality” value [2] was at least 80% and the “effect … (mortality or growth inhibition)” value [4] was at least 80%.

`O=C(CC(F)(F)F)Nc1cc(-c2ccc3c(c2)CC(c2cc(C(F)(F)F)cc(C(F)(F)F)c2)(C(F)(F)F)O3)c(F)cc1F` (stereo not shown) [Compound 213] was tested, and the “control (at least one of mortality, anti-feedant effect, growth inhibition)” value [1] was “at least 80%”, the “egg or larval mortality” value [2] was at least 80% and the “effect … (mortality or growth inhibition)” value [4] was at least 80%. For the same compound, the “effect … (mortality or growth inhibition)” value [3] was at least 80%.

`O=C(Nc1cccc(-c2ccc3c(c2)CC(c2cccc(C(F)(F)F)c2)(C(F)(F)F)O3)c1)c1ccc(F)cc1` (stereo not shown) [Compound 111] was tested, and the “control (at least one of mortality, anti-feedant effect, growth inhibition)” value [1] was “at least 80%”, the “egg or larval mortality” value [2] was at least 80% and the “effect … (mortality or growth inhibition)” value [4] was at least 80%. For the same compound, the “effect … (mortality or growth inhibition)” value [3] was at least 80%.

For `CCC(Cl)C(=O)Nc1cccc(-c2ccc3c(c2)CC(c2cccc(C(F)(F)F)c2)(C(F)(F)F)O3)c1` (stereo not shown) [Compound 114], the “control (at least one of mortality, anti-feedant effect, growth inhibition)” value [1] was “at least 80%”, the “egg or larval mortality” value [2] was at least 80% and the “effect … (mortality or growth inhibition)” value [4] was at least 80%. The “effect … (mortality or growth inhibition)” value [3] was at least 80%.

With `CCC(CC)C(=O)Nc1cccc(-c2ccc3c(c2)CC(c2cccc(C(F)(F)F)c2)(C(F)(F)F)O3)c1` (stereo not shown) [Compound 56] the “control (at least one of mortality, anti-feedant effect, growth inhibition)” value [1] was “at least 80%”, the “egg or larval mortality” value [2] was at least 80% and the “effect … (mortality or growth inhibition)” value [4] was at least 80%.

For `CCC(=O)Nc1nccc(-c2cc3c(cc2C)OC(c2cc(Cl)cc(Cl)c2)(C(F)(F)F)C3)n1` (stereo not shown) [Compound 143], the “control (at least one of mortality, anti-feedant effect, growth inhibition)” value [1] was “at least 80%”, the “effect … (mortality or growth inhibition)” value [4] was at least 80% and the “effect … (mortality or growth inhibition)” value [3] was at least 80%.

For `CC(=O)Nc1cccc(-c2ccc3c(c2)CC(c2cc(Cl)cc(Cl)c2)(C(F)(F)F)O3)c1F` (racemic) [Compound 82], the “control (at least one of mortality, anti-feedant effect, growth inhibition)” value [1] was “at least 80%”, the “egg or larval mortality” value [2] was at least 80% and the “effect … (mortality or growth inhibition)” value [4] was at least 80%.

In the case of `CC(C)C(C)C(=O)Nc1cccc(-c2ccc3c(c2)CC(c2cccc(C(F)(F)F)c2)(C(F)(F)F)O3)c1` (stereo not shown) [Compound 69], the “control (at least one of mortality, anti-feedant effect, growth inhibition)” value [1] is reported as “at least 80%”, the “egg or larval mortality” value [2] is reported as at least 80% and the “effect … (mortality or growth inhibition)” value [4] is reported as at least 80%.

For `CC1CC1C(=O)Nc1cccc(-c2ccc3c(c2)CC(c2cc(Cl)cc(Cl)c2)(C(F)(F)F)O3)c1` (stereo not shown) [Compound 101], the “control (at least one of mortality, anti-feedant effect, growth inhibition)” value [1] was “at least 80%”, the “egg or larval mortality” value [2] was at least 80% and the “effect … (mortality or growth inhibition)” value [4] was at least 80%.

For `O=C(Nc1cccc(-c2ccc3c(c2)CC(c2cc(Cl)cc(Cl)c2)(C(F)(F)F)O3)c1)c1cc[nH]n1` (stereo not shown) [Compound 54], the “control (at least one of mortality, anti-feedant effect, growth inhibition)” value [1] was “at least 80%”, the “egg or larval mortality” value [2] was at least 80% and the “effect … (mortality or growth inhibition)” value [4] was at least 80%.

`O=C(Nc1cccc(-c2ccc3c(c2)CC(c2cccc(C(F)(F)F)c2)(C(F)(F)F)O3)c1)c1ccno1` (stereo not shown) [Compound 57] was tested, and the “control (at least one of mortality, anti-feedant effect, growth inhibition)” value [1] was “at least 80%”, the “egg or larval mortality” value [2] was at least 80% and the “effect … (mortality or growth inhibition)” value [4] was at least 80%.
